Experimental data: PubChem BioAssay AID1259273 (Sanger Institute, 2017)
Assay: 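Kinases whose loss is synthetic lethal with BYL719, cetuximab or trametinib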 (follow-up of hits). Cell system: human NCI-H630 colorectal cancer cells. Reagent: single siRNA against human genes. Treatment: anchor drugs BYL719 at 1 µM, cetuximab at 5 µg/ml or trametinib at 10 nM, or DMSO vehicle alone. Measurement: 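Replicate-averaged viability scaled to non-targeting control pool wells, plus per-drug synergy scores comparing knock-down with drug to knock-down only and drug only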. Reading the numbers: synergy score with trametinib and synergy score with BYL719 and synergy score with cetuximab: higher = stronger synergy, more synthetic lethal. Hit rule: 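a duplex counts as synthetic lethal if its averaged synergy score exceeds 0.10 with BYL719, cetuximab or trametinib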.
In all, the deposit lists 160 reagents; this is a random part of them. Of all reagents, 36 (22%) were called active. 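Four distinct siRNA duplexes per gene; each call applies to one duplex and is not gene-level validation across cell lines.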 The numbers tell different reagents against one gene apart. Further read-outs or replicates are left out here. Not stated in the record: the amount of reagent, the time to read-out.

| gene symbol | reagent | synergy score with trametinib | synergy score with BYL719 | synergy score with cetuximab | activity call |
| --- | --- | --- | --- | --- | --- |
| KCNH8 (potassium voltage-gated channel subfamily H member 8) | 1 | 0.167 | 0.0614 | -0.0558 | active |
| KCNH8 (potassium voltage-gated channel subfamily H member 8) | 2 | 0.14 | 0.0794 | 0.0171 | active |
| KCNH8 (potassium voltage-gated channel subfamily H member 8) | 3 | -0.0696 | -0.0439 | -0.097 | inactive |
| KCNH8 (potassium voltage-gated channel subfamily H member 8) | 4 | 0.0624 | 0.0285 | -0.0498 | inactive |
| HUNK (hormonally up-regulated Neu-associated kinase) | 1 | 0.00749 | -0.107 | -0.233 | inactive |
| HUNK (hormonally up-regulated Neu-associated kinase) | 2 | 0.13 | -0.00575 | 0.0729 | active |
| HUNK (hormonally up-regulated Neu-associated kinase) | 3 | -0.103 | -0.116 | -0.085 | inactive |
| HUNK (hormonally up-regulated Neu-associated kinase) | 4 | 0.091 | 0.0665 | 0.112 | active |
| CSNK2A2 (casein kinase 2 alpha 2) | 1 | -0.0861 | -0.146 | -0.0739 | inactive |
| CSNK2A2 (casein kinase 2 alpha 2) | 2 | 0.0374 | 0.0776 | -0.147 | inactive |
| CSNK2A2 (casein kinase 2 alpha 2) | 3 | -0.00847 | -0.0502 | -0.126 | inactive |
| CSNK2A2 (casein kinase 2 alpha 2) | 4 | 0.054 | -0.0852 | 0.0123 | inactive |
| BRAF (B-Raf proto-oncogene, serine/threonine kinase) | 1 | -0.0523 | -0.197 | -0.238 | inactive |
| BRAF (B-Raf proto-oncogene, serine/threonine kinase) | 2 | 0.32 | 0.135 | 0.0848 | active |
| BRAF (B-Raf proto-oncogene, serine/threonine kinase) | 3 | -0.0923 | -0.175 | -0.159 | inactive |
| BRAF (B-Raf proto-oncogene, serine/threonine kinase) | 4 | 0.148 | -0.116 | -0.0488 | active |
| PAK1 (p21 (RAC1) activated kinase 1) | 1 | 0.108 | -0.0894 | -0.0587 | active |
| PAK1 (p21 (RAC1) activated kinase 1) | 2 | 0.169 | -0.0394 | 0.054 | active |
| PAK1 (p21 (RAC1) activated kinase 1) | 3 | 0.108 | 0.0238 | -0.013 | active |
| PAK1 (p21 (RAC1) activated kinase 1) | 4 | -0.0307 | 0.0486 | -0.0816 | inactive |
| NLK (nemo like kinase) | 1 | 0.0415 | -0.123 | -0.0839 | inactive |
| NLK (nemo like kinase) | 2 | 0.0805 | -0.0438 | 0.0392 | inactive |
| NLK (nemo like kinase) | 3 | -0.103 | -0.146 | -0.226 | inactive |
| NLK (nemo like kinase) | 4 | -0.101 | -0.146 | -0.23 | inactive |
| COASY (Coenzyme A synthase) | 1 | 0.128 | -0.0791 | -0.121 | active |
| COASY (Coenzyme A synthase) | 2 | -0.143 | 0.0106 | -0.105 | inactive |
| COASY (Coenzyme A synthase) | 3 | -0.0115 | -0.0701 | 0.0148 | inactive |
| COASY (Coenzyme A synthase) | 4 | 0.0482 | -0.0184 | 0.0431 | inactive |
| CRIM1 (cysteine rich transmembrane BMP regulator 1) | 1 | -0.0167 | -0.0901 | -0.0361 | inactive |
| CRIM1 (cysteine rich transmembrane BMP regulator 1) | 2 | -0.18 | -0.179 | -0.264 | inactive |
| CRIM1 (cysteine rich transmembrane BMP regulator 1) | 3 | -0.103 | -0.0481 | -0.00271 | inactive |
| CRIM1 (cysteine rich transmembrane BMP regulator 1) | 4 | -0.0553 | -0.204 | -0.0183 | inactive |
| GTF2H1 (general transcription factor IIH subunit 1) | 1 | -0.0289 | -0.0595 | -0.0449 | inactive |
| GTF2H1 (general transcription factor IIH subunit 1) | 2 | -0.0105 | -0.146 | 0.0329 | inactive |
| GTF2H1 (general transcription factor IIH subunit 1) | 3 | -0.068 | -0.131 | -0.0801 | inactive |
| GTF2H1 (general transcription factor IIH subunit 1) | 4 | 0.11 | 0.00378 | 0.0414 | active |
| IRAK3 (interleukin 1 receptor associated kinase 3) | 1 | 0.0347 | 0.0427 | -0.117 | inactive |
| IRAK3 (interleukin 1 receptor associated kinase 3) | 2 | 0.0664 | -0.108 | 0.0127 | inactive |
| IRAK3 (interleukin 1 receptor associated kinase 3) | 3 | 0.00835 | -0.146 | -0.0981 | inactive |
| IRAK3 (interleukin 1 receptor associated kinase 3) | 4 | -0.0527 | -0.0984 | -0.18 | inactive |
